Earlier results, collected in US6261997A, “Slow release formulations of pesticides” (Yissum Research Development Company of the Hebrew …, priority 1996, dated 2001).
Read-outs that look alike come from different tables or passages of the source.

Conditions: cited from earlier work

Question: For `CCc1cccc(C)c1N(C(=O)CCl)C(C)COC` (stereo not shown) [metolachlor], which “depth at which metolachlor was observed” value (28 days after treatment) is on record?
Answer: 21-27 cm

Question: And the “depth at which metolachlor was observed” value (56 days after treatment)?
Answer: 27-33 cm

Question: What about the “downward movement of metolachlor” value (Bowman (1988, 1989)) of the same molecule?
Answer: no more than 10 cm

Question: What about the “fraction of applied metolachlor found in the superficial layer (0-9 cm)” value (three days after application) of the same molecule?
Answer: 84-91%
